From doi:10.1101/2025.01.21.633742
No constants are given. Whether binding was seen depends on the method and setting. Binding seen in cells or lysates may run through a third protein. For some of these results: Binding calls can cover weak binding; strength is not graded here.

Amino acid sequences for entries named in this document (tags omitted).
UniProt P31094: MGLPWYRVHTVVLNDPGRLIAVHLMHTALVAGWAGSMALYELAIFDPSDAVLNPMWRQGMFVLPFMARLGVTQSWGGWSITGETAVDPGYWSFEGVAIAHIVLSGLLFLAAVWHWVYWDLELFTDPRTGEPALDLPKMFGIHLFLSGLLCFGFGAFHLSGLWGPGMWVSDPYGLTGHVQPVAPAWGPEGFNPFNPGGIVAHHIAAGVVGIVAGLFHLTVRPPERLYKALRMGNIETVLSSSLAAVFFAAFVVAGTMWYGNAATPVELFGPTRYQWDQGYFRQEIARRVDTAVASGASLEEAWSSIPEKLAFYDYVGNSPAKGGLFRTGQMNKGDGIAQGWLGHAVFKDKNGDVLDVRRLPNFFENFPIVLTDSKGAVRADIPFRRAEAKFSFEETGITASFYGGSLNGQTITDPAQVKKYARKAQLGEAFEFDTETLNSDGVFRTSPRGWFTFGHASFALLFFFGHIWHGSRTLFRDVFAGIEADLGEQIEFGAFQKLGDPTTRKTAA

Legend:
[1] = biological target: FLAG-tagged NblS (sensory histidine kinase NblS of Synechococcus elongatus PCC 7942) (Synechococcus elongatus PCC 7942) (UniProt Q8RQ68); assay: co-IP + cross-linking
[2] = biological target: hexahistidine-tagged PSII core antenna protein CP43 (Synechococcus elongatus PCC 7942) (UniProt P11004); assay: pull-down + cross-linking

binding [1] | binding [2] | Substance
binds |  | PSII reaction center D2 protein (from UniProt P11005 1-352)
no binding |  | hexahistidine-tagged PSII core antenna protein CP43 (from UniProt P11004 1-461)
binds |  | PSII core antenna CP47 protein (from UniProt P31094 1-508)
 | no binding | FLAG-tagged NblS (sensory histidine kinase NblS of Synechococcus elongatus PCC 7942) (from UniProt Q8RQ68) (enzyme)
